Measurements reported in PubChem BioAssay AID504808 (Drosophila RNAi Screening Center, 2011)

Assay: 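Chromatin factors that keep E2F targets switched off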 (primary screen)
Cells: Drosophila S2 cells
Reagent: long dsRNA against Drosophila genes
Detection: 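Dual luciferase plate measurements; E2F-specific signal taken as firefly over Renilla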
Reading the numbers: E2F firefly: higher = more E2F reporter activity; Renilla normaliser: higher = more normaliser reporter signal
Call rule: 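Called active if the normalised E2F reporter went up by over 50%; the cutoff is arbitrary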
The screen tested about 21,000 reagents; below is an unselected part of those that have a named target and a result. In the full data, 18 (0.084%) got an active call. 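Raw counts without plate normalisation, one of two replicates; the ratio scores behind the calls were not deposited.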 Unmarked entries are inactive. Reagents against one gene are numbered here. Not stated in the record: the amount of reagent, the time to read-out.

What is on record for CG34007 (GeneID 3885610)?
E2F firefly, rep 1: 1.15e5; Renilla normaliser, rep 1: 4479

For Hr51 (GeneID 36702), what does the deposit list?
E2F firefly, rep 1: 92206; Renilla normaliser, rep 1: 3556

What is on record for CG15820 (GeneID 38277)?
E2F firefly, rep 1: 78356; Renilla normaliser, rep 1: 3432

With Grip75 (GeneID 34441), what does the deposit list?
E2F firefly, rep 1: 1.50e5; Renilla normaliser, rep 1: 5302

How did the screen score Ccp84Ag (GeneID 40819)?
E2F firefly, rep 1: 1.48e5; Renilla normaliser, rep 1: 7018

What did the screen give for CG5068 (GeneID 39032)?
E2F firefly, rep 1: 67245; Renilla normaliser, rep 1: 3485

What did the screen give for CG12126 (GeneID 35805)?
E2F firefly, rep 1: 1.60e5; Renilla normaliser, rep 1: 5524

With Opa1 (GeneID 36578), how do the results read?
E2F firefly, rep 1: 167; Renilla normaliser, rep 1: 30

With DIP-theta (GeneID 33795) #1, what does the deposit list?
E2F firefly, rep 1: 1.48e5; Renilla normaliser, rep 1: 5399

How did the screen score DIP-theta (GeneID 33795) #2?
E2F firefly, rep 1: 1.52e5; Renilla normaliser, rep 1: 4755

How did the screen score DIP-theta (GeneID 33795) #3?
E2F firefly, rep 1: 1.63e5; Renilla normaliser, rep 1: 5412

For Usp15-31 (GeneID 37954) #1, what was measured?
E2F firefly, rep 1: 85626; Renilla normaliser, rep 1: 3147

What is on record for Usp15-31 (GeneID 37954) #2?
E2F firefly, rep 1: 96455; Renilla normaliser, rep 1: 4179

With cal1 (GeneID 42065), what does the deposit list?
E2F firefly, rep 1: 61937; Renilla normaliser, rep 1: 3272

With CG11670 (GeneID 41608), what does the deposit list?
E2F firefly, rep 1: 1.08e5; Renilla normaliser, rep 1: 5872

What did the screen give for Larp7 (GeneID 44900)?
E2F firefly, rep 1: 1.11e5; Renilla normaliser, rep 1: 4785

With Mov10 (GeneID 36922), what does the deposit list?
E2F firefly, rep 1: 76519; Renilla normaliser, rep 1: 3215

With Mon1 (GeneID 33689), what was measured?
E2F firefly, rep 1: 1.57e5; Renilla normaliser, rep 1: 5104

For Ir56b (GeneID 37250), how do the results read?
E2F firefly, rep 1: 1.41e5; Renilla normaliser, rep 1: 5325

An excerpt from above, showing only “Renilla normaliser, rep 1”.
CG34007 (GeneID 3885610): 4479
Hr51 (GeneID 36702): 3556
